Laboratory results taken from PMC12541429.
These are yes or no findings as the source states them, for the method shown. In cells and extracts the contact can be indirect. Some results given as binding are weak or reduced against the parent protein; the word gives no strength. Where a sequence is shown, tags or fusion partners need not be part of it.

T1: GFP-RSPH3B expressed in HEK293T cells (mouse) (UniProt Q9DA80)
T1 sequence: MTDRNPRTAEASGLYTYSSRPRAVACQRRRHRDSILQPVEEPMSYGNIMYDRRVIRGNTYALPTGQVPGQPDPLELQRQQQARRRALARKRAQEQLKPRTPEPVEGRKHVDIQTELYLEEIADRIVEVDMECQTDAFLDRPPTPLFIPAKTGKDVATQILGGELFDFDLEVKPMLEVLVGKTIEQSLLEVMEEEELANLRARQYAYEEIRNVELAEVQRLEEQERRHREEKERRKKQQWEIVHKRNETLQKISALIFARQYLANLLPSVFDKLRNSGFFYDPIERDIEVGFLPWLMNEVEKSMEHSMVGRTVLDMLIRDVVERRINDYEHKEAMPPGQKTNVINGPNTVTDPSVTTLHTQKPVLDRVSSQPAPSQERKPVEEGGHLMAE

T2: FLAG-tagged AK8 expressed in HEK293T cells (mouse) (UniProt Q32M07)
T2 sequence: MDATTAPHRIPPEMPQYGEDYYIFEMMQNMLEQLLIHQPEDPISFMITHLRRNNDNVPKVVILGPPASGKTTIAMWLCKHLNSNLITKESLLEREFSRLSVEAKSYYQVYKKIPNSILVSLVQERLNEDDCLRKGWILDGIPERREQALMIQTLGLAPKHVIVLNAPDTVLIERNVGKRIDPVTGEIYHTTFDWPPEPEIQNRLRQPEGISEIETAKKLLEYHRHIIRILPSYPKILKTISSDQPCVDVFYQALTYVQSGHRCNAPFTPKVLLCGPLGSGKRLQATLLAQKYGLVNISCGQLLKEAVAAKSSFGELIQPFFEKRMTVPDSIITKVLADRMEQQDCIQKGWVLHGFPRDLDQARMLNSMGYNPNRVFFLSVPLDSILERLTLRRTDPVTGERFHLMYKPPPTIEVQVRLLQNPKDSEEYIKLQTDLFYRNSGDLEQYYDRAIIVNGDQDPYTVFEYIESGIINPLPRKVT

B1: EFCAB10 coexpressed with GFP-RSPH3B and AK8 in HEK293T cells (Fig. 4K) (protein, UniProt Q9D581 1-132)
chain: MEPVADRELQAKLYLERHRIMELLNQLTSFLLFARPKKPREYLISLLERLRVAKATHVAFPYFMDNSNTVSMFEMMDMAGRGCISFVQYKEALKNLGLCTADEVLNDDGHIITLDTFRDEMNKRMEKMWSMF
B2: GFP-EFCAB10 expressed in HEK293T cells (protein, UniProt Q9D581 1-132)
chain: B1 chain
B3: AK8 coexpressed with GFP-RSPH3B in HEK293T cells (Fig. 4K) (protein, UniProt Q32M07 1-479)
chain: T2 sequence

Tests used:
[1] = target: T1, GFP-RSPH3B expressed in HEK293T cells (mouse); assay: co-IP; GFP-RSPH3B precipitated with anti-GFP beads from HEK293T exogenously expressing the indicated proteins (AK8 with or without EFCAB10); high-salt lysis buffer (1% NP-40, 500 mM NaCl, 50 mM Hepes, 5 mM EDTA, pH 7.8), 4 h at 4 °C
[2] = target: T2, FLAG-tagged AK8 expressed in HEK293T cells (mouse); assay: co-IP; GFP-EFCAB10 and FLAG-tagged proteins coexpressed in HEK293T; anti-FLAG agarose beads, 4 h at 4 °C; high-salt lysis buffer (1% NP-40, 500 mM NaCl, 50 mM Hepes, 5 mM EDTA, pH 7.8); blots with GFP and FLAG antibodies

Row | Binder | binding [1] | binding [2]
1 | B1 | binds | –
2 | B2 | – | binds
3 | B3 | binds | –
